doi:10.1101/2021.05.31.446447
No constants are given. Whether binding was seen depends on the method and setting. In cells and extracts the contact can be indirect. Some results given as binding are weak or reduced against the parent protein; the word gives no strength. Where a sequence is shown, tags or fusion partners need not be part of it. Values belong to the binder of their own block, whether it stands above or below them.

Molecular target: T1, CP190 protein (Drosophila melanogaster) (UniProt Q24478)
T1 sequence: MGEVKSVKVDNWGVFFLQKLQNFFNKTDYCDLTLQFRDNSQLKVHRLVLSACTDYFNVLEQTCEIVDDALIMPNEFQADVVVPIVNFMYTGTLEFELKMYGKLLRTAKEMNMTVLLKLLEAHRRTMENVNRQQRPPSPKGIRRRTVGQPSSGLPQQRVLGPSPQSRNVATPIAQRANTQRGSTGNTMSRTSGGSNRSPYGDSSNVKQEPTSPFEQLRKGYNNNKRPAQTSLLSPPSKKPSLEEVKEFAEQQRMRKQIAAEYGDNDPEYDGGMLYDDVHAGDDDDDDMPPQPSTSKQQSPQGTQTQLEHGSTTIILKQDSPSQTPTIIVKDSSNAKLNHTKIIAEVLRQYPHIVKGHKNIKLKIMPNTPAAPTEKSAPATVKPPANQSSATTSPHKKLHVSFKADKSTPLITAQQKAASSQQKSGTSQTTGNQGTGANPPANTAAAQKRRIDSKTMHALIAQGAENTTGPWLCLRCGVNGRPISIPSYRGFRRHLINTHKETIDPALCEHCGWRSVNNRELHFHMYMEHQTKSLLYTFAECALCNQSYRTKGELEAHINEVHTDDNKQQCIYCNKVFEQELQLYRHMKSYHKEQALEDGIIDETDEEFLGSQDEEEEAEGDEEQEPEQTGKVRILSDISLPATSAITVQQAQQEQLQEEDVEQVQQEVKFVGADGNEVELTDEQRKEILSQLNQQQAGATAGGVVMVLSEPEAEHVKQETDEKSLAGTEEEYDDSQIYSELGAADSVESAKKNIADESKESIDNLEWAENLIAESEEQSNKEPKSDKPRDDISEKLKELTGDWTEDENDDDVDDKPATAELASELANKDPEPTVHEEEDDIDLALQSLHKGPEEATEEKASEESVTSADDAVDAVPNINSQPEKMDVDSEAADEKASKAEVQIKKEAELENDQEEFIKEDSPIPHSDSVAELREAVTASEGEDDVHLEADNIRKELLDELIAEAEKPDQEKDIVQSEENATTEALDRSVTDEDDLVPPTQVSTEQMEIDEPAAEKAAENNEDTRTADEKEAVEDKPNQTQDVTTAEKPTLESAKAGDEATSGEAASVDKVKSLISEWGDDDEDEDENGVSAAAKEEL
Test: co-IP

binding: no binding
B1: 3×HA-tagged dCTCF^Δ705–733 (protein, UniProt Q9VS55)
chain: MPRRTKKDEDPEDLQTFLNNFHKEIEGNSDEKVVNTILEAISAEAIDLDENGAEAGGSKPMEEAEADLDHAEEAEEEEEDDEDKYFIDDEGNCYIKTTPKKQKELQKKLKQAAAKPGKATRSVVSTATNKSINLRPAKSTPKATTSKPPPEPKAISVRPARAAAAKAKQSAMPPPPALVVKVPAPRGRPRKNPVIPKPEPMDLERELEELVDEPDISSMVTELSDYTVDEAAVEAATATLTPNEAEVYEFEDNATTEDENADKKDVDFVLSNKEVKLKTASSTSQNSNASGHKYSCPHCPYTASKKFLITRHSRSHDVEPSFKCSICERSFRSNVGLQNHINTHMGNKPHKCKLCESAFTTSGELVRHTRYKHTKEKPHKCTECTYASVELTKLRRHMTCHTGERPYQCPHCTYASQDMFKLKRHMVIHTGEKKYQCDICKSRFTQSNSLKAHKLIHSVVDKPVFQCNYCPTTCGRKADLRVHIKHMHTSDVPMTCRRCGQQLPDRYQYKLHVKSHEGEKCYSCKLCSYASVTQRHLASHMLIHLDEKPFHCDQCPQAFRQRQLLRRHMNLVHNEEYQPPEPREKLHKCPSCPREFTHKGNLMRHMETHDDSANAREKRRRLKLGRNVRLQKDGTVITLIKDQYVDMDRDQEENEEDDNPESYDLAEIEPENSEAEDADDDVETIVSDPIRQRIKPAPIIINKQEEPDNSDFTVEWQGDDGEVMVVELVNGDEEVLVKHEPSANSKISAKNCFGFEDDDDYEEYGDGENEVDGASQEFLQLMDMIEQDS

binding: binds
B2: 3×HA-tagged dCTCF wild type (protein, UniProt Q9VS55 1-818)
chain: MPRRTKKDEDPEDLQTFLNNFHKEIEGNSDEKVVNTILEAISAEAIDLDENGAEAGGSKPMEEAEADLDHAEEAEEEEEDDEDKYFIDDEGNCYIKTTPKKQKELQKKLKQAAAKPGKATRSVVSTATNKSINLRPAKSTPKATTSKPPPEPKAISVRPARAAAAKAKQSAMPPPPALVVKVPAPRGRPRKNPVIPKPEPMDLERELEELVDEPDISSMVTELSDYTVDEAAVEAATATLTPNEAEVYEFEDNATTEDENADKKDVDFVLSNKEVKLKTASSTSQNSNASGHKYSCPHCPYTASKKFLITRHSRSHDVEPSFKCSICERSFRSNVGLQNHINTHMGNKPHKCKLCESAFTTSGELVRHTRYKHTKEKPHKCTECTYASVELTKLRRHMTCHTGERPYQCPHCTYASQDMFKLKRHMVIHTGEKKYQCDICKSRFTQSNSLKAHKLIHSVVDKPVFQCNYCPTTCGRKADLRVHIKHMHTSDVPMTCRRCGQQLPDRYQYKLHVKSHEGEKCYSCKLCSYASVTQRHLASHMLIHLDEKPFHCDQCPQAFRQRQLLRRHMNLVHNEEYQPPEPREKLHKCPSCPREFTHKGNLMRHMETHDDSANAREKRRRLKLGRNVRLQKDGTVITLIKDQYVDMDRDQEENEEDDNPESYDLAEIEPENSEAEDADDDVETIVSDPIRQRIKPAPIIINKQARLAASEKQPMIINQRLRSQRGTKTFHIKEEPDNSDFTVEWQGDDGEVMVVELVNGDEEVLVKHEPSANSKISAKNCFGFEDDDDYEEYGDGENEVDGASQEFLQLMDMIEQDS
